Measured values: article PMC5996148
Some of the results follow.

Assays:
Assay in all cases: protein microarray (ProtoArray v5.0), streptavidin-Alexa Fluor 647
Settings in all cases: 3'-biotin; 20 mM Tris (pH 7.5), 5 mM MgCl2, 100 mM KCl, 0.1% Tween-20, A/T-rich and random oligonucleotide blockers; temperature not stated; high values mean tight binding
[1] = system: Apolipoprotein L2 (human)
Arfaptin-1 (human) = system: Arfaptin-1 (human)
[2] = system: Armadillo repeat-containing protein 6 (human)
[3] = system: Aromatic-L-amino-acid decarboxylase (human)
Ataxin-3 (human) = system: Ataxin-3 (human)
[4] = system: Autophagy-related protein 3 (human)
B3GALT4 (human) = system: B3GALT4 (human)
B3GNT1 (human) = system: B3GNT1 (human)
BAG2 (human) = system: BAG2 (human)
BAT1 (human) = system: BAT1 (human)

Sequence: GGGGACAGGGGTATGGGGAGGGG [G4-3 biotinylated (CtG)]
- binding signal [1]: -0.334 z-score
- binding signal (Arfaptin-1 (human)): -0.34 z-score
- binding signal [2]: -0.336 z-score
- binding signal [3]: -0.336 z-score
- binding signal (Ataxin-3 (human)): -0.324 z-score
- binding signal [4]: -0.32 z-score
- binding signal (B3GALT4 (human)): -0.315 z-score
- binding signal (B3GNT1 (human)): -0.318 z-score
- binding signal (BAG2 (human)): -0.325 z-score
- binding signal (BAT1 (human)): -0.28 z-score
